Measured values: patent publication US9212169B2, “Benzimidazole derivative and use thereof” (HYOGO COLLEGE OF MEDICINE, priority 2012, dated 2015)
Some results were stated once for a whole list of compounds, not compound by compound.

What follows are molecules tested against T1, silkworm recombinant PCA-1 (Homo sapiens, UniProt Q96Q83) (assay: Evaluation of PCA-1 inhibitory activity (demethylation of 3-methyl cytosine-containing oligo DNA, real-time PCR)).
T1 construct: made in house; host or cells: silkworm
T1 sequence (Q96Q83 1-286): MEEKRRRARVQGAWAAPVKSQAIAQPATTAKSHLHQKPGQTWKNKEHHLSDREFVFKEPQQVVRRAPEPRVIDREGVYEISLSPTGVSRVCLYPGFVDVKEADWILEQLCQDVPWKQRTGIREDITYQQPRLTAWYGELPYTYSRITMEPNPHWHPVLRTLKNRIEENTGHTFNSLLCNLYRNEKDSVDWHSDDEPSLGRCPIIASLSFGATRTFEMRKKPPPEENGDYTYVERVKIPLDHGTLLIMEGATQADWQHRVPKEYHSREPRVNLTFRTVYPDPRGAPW
Assay type: biochemical
Procedure: To an enzyme reaction solution (50 mM trishydrochloric acid buffer (pH 8.0), 2 mM ascorbic acid, 100 μM oxoglutaric acid, 40 μM ferric sulfate) containing 80 fmol 3-methyl cytosine-containing oligo DNA as a substrate were added a test compound (10 μM, 1 μM) and 4 ng silkworm recombinant PCA-1, and the mixture was incubated at 37° C. for 1 hr. After completion of the reaction, the enzyme reaction solution was 20-fold diluted with water to quench the reaction. Using 2 μL thereof, real-time PCR (Bio-Rad iQ SYBR Green Supermix) was performed in a 20 μL reaction system. The analytical curve was formed using a dilution series of the non-methylated oligoDNA. The primers used were forward primer 24 bases and reverse primer 22 bases. Reaction conditions: 95° C., 10 seconds→40 cycles of 95° C., 5 seconds, 61° C., 30 seconds, and 72° C., 15 seconds→95° C., 1 min→55° C., 1 min→55° C., 10 seconds, after which increased by 0.5° C. to 95° C. for 10 seconds→preserved at 25° C.
The degree of demethylation in the presence or absence of the test compound was compared and the inhibitory activity was evaluated.

Row | SMILES | PCA-1 inhibitory activity (in words)
1 | Cc1nn(-c2nc3cc(Br)ccc3[nH]2)c(O)c1Cc1ccccc1 [Example 54] | good PCA-1 inhibitory activity
2 | CCOC(=O)CCc1c(C)nn(-c2nc3cc(C)ccc3[nH]2)c1O [Example 56] | good PCA-1 inhibitory activity
3 | Cc1ccc2[nH]c(-n3nc(C)c(CCC(=O)O)c3O)nc2c1 [Example 57] | good PCA-1 inhibitory activity
